The list shows a part of the results.

Chains of the proteins cited; added tags and fusions are not shown. Lines headed by an entry give the natural chain unless they say otherwise; changes in a name come on top.
UniProt P16989, whole entry, looked up: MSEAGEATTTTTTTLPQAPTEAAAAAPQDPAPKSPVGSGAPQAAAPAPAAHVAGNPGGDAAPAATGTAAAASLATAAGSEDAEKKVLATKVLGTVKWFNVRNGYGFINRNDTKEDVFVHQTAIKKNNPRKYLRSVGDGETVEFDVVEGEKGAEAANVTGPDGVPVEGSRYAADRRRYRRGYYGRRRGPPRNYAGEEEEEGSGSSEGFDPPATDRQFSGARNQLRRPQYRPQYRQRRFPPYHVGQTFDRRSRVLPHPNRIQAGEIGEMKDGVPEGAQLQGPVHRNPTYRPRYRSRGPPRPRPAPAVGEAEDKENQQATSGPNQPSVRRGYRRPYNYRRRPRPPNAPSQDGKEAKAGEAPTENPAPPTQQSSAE
UniProt Q8IZ13: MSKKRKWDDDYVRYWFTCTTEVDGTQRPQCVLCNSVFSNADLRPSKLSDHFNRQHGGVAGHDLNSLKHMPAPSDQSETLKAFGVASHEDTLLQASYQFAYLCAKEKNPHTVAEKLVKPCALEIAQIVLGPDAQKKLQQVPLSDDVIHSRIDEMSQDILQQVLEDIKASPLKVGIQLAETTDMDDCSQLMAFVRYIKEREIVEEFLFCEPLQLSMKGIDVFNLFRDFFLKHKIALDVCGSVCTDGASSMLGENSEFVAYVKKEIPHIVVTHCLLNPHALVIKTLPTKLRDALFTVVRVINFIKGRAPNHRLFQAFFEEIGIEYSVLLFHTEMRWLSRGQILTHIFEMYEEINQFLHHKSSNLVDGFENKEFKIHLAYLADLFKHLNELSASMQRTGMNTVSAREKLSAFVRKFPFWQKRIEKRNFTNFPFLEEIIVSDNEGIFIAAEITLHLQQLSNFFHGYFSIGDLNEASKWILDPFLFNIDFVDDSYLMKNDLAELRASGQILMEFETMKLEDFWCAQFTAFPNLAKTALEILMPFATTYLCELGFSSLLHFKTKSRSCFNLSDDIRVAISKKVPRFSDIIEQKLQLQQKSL
UniProt Q9UIA9: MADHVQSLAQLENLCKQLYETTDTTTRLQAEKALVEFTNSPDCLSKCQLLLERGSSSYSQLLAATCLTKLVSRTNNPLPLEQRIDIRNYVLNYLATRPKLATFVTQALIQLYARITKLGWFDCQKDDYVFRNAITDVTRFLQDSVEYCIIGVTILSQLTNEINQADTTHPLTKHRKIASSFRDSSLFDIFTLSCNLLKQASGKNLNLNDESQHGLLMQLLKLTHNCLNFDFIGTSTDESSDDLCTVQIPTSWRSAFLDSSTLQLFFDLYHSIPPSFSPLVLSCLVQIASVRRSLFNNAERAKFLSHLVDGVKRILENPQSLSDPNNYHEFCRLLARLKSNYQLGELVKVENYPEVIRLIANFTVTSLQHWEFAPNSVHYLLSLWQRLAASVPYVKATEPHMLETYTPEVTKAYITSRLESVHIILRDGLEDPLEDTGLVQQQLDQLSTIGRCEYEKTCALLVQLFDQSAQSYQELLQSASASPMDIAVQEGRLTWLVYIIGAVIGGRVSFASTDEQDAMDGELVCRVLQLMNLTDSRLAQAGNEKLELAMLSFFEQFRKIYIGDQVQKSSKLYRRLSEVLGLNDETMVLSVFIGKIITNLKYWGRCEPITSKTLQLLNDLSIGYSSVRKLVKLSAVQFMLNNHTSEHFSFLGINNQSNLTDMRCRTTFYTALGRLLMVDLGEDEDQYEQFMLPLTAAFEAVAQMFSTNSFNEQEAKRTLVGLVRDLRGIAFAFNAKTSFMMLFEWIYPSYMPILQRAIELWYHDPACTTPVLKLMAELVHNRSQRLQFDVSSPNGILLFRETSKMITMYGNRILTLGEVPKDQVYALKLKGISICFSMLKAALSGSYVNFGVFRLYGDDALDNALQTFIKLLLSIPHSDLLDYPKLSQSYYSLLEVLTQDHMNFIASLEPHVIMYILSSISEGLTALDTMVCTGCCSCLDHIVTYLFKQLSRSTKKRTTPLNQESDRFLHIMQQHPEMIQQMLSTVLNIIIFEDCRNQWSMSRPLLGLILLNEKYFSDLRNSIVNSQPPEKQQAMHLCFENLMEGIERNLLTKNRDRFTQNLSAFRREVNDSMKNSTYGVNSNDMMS
UniProt Q9GZM5: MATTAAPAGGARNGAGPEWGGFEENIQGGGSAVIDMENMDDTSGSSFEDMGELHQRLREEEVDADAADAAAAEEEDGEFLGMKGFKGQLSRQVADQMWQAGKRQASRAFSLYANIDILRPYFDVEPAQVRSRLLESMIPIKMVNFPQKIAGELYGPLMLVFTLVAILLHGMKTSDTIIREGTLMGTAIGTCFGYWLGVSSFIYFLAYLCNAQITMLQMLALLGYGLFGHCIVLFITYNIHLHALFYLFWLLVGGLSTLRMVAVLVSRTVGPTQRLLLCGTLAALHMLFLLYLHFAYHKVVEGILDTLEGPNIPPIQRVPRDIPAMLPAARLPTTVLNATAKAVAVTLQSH
UniProt Q9NYG2: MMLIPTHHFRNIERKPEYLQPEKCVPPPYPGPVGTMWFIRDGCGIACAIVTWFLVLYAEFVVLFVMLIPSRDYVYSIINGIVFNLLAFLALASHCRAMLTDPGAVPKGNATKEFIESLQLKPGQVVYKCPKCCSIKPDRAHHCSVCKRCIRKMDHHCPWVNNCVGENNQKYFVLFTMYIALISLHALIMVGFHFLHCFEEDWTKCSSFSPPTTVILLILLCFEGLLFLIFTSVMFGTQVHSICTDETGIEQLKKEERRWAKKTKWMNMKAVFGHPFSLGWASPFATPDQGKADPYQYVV
UniProt O14980, whole entry, looked up: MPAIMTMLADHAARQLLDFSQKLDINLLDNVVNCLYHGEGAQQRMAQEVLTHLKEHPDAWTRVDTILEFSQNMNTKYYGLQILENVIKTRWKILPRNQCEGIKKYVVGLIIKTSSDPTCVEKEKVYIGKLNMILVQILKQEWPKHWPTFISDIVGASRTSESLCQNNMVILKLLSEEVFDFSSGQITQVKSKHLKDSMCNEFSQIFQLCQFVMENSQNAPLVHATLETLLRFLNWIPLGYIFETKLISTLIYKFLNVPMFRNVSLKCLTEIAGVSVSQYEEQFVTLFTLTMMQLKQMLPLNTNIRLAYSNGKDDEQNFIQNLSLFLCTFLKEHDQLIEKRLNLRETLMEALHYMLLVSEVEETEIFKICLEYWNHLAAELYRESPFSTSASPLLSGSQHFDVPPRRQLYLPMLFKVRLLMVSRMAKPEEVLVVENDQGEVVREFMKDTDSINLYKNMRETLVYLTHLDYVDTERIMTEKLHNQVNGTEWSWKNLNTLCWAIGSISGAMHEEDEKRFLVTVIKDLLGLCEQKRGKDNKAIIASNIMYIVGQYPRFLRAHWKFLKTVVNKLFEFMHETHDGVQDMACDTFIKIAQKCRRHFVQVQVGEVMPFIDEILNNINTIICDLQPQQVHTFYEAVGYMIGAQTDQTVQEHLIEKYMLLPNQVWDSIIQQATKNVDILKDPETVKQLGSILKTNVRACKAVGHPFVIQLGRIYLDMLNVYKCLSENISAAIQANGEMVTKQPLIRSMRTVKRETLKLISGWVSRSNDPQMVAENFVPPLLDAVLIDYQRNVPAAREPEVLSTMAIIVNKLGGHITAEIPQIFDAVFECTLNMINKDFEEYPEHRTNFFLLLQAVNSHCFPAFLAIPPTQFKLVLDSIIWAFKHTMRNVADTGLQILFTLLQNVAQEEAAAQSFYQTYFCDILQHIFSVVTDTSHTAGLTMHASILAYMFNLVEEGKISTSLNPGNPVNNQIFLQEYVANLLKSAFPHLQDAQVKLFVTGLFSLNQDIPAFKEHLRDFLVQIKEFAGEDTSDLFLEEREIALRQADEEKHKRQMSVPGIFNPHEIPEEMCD
UniProt Q8WU90: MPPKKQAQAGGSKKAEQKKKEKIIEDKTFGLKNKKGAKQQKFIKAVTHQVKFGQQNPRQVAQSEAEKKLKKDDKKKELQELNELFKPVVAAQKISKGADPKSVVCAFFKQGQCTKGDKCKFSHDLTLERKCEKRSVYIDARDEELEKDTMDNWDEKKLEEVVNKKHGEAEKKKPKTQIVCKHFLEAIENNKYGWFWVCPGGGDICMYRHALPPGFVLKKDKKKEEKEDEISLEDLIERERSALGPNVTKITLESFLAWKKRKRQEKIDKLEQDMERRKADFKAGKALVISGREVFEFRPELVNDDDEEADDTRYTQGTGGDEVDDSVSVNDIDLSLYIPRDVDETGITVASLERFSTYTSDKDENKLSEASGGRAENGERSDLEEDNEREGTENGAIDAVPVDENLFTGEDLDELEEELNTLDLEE
UniProt Q96EC8: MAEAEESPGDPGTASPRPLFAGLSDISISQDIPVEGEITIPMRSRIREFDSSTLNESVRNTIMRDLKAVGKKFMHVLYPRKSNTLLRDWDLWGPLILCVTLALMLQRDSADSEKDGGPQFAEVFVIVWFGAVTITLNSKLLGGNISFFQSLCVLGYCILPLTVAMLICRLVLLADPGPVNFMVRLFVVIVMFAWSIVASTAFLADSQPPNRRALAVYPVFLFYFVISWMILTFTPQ
UniProt P18887, whole entry, looked up: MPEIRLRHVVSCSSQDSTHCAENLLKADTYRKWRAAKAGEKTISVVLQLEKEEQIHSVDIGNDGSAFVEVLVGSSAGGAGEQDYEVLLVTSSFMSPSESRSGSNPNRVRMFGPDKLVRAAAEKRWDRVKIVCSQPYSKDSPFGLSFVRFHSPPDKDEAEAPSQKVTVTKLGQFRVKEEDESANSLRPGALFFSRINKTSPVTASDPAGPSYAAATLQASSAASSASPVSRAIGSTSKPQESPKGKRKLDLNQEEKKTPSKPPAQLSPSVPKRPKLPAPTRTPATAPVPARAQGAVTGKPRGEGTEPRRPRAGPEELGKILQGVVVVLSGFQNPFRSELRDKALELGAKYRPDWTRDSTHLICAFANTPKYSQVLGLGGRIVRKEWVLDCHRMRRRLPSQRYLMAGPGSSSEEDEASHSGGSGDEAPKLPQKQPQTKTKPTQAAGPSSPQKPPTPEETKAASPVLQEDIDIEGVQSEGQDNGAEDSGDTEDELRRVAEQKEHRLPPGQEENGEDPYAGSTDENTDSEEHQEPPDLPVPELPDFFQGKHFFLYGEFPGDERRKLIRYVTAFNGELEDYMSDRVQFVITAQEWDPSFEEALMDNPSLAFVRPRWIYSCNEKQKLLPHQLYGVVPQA
UniProt O43592: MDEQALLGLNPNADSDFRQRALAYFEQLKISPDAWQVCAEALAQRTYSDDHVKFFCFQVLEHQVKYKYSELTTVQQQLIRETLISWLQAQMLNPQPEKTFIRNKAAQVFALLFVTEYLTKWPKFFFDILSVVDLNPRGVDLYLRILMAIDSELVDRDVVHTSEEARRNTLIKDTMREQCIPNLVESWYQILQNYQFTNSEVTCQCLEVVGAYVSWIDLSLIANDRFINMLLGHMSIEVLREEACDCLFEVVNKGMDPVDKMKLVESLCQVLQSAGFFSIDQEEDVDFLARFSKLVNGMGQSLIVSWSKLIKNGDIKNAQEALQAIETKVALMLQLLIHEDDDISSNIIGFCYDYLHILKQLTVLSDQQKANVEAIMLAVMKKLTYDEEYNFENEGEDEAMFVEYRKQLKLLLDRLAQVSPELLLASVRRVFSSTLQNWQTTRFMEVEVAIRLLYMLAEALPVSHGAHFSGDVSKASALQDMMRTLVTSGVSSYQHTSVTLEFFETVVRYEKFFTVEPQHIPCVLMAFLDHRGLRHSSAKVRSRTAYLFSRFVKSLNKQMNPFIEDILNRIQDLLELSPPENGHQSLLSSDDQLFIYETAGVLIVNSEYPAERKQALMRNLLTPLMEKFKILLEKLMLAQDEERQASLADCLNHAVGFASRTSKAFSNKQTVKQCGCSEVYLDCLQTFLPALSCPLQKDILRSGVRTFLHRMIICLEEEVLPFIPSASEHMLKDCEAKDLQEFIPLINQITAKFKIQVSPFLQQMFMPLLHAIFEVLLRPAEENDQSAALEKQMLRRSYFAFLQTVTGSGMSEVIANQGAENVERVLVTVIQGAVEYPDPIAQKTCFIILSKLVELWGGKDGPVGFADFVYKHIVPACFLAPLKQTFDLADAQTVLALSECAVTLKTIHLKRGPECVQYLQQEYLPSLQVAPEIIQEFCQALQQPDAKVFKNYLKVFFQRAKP
UniProt Q9Y2Z4: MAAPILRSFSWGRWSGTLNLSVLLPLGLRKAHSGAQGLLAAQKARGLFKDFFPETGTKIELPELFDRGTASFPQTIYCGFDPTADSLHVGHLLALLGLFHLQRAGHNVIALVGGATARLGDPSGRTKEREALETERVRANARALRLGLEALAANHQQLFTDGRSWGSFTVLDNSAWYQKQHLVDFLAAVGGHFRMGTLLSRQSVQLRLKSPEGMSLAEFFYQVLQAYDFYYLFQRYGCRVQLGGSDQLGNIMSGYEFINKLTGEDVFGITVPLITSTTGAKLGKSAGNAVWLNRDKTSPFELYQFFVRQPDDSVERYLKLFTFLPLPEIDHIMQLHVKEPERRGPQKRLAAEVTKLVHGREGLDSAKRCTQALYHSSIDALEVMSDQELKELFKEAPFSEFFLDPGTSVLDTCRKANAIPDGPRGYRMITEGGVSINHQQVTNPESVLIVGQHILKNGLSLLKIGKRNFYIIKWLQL

Compound in one assay: NCC(=O)Nc1ccc(-n2nc(C(F)(F)F)cc2-c2ccc3c(ccc4ccccc43)c2)cc1
Description: log2 fold change, soluble protein after heating vs DMSO (PISA); higher = thermal stabilisation; K562 lysate, 10 uM; active = over 0.2 and 3.5 SD of the protein, either way, in both replicates (recomputed). The method in brief: (§1)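 Quantification was by TMTpro 16plex LC-MS/MS with equalised channel sums, applied to the supernatant after 21,000xg for 90 min. Samples were crude K562 extract at 1 mg/mL protein in PBS pH 7.4 with 1 mM MgCl2, treated with 10 μM compound for 30 min, heated for 3 min across 48°C-58°C, pooled and brought to 0.5% NP-40 at 4°C. Values are log-two fold changes in thermal stability relative to solvent controls, from duplicates.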
For the target YBX3 (UniProt P16989), the log2 fold change is inactive: 0.007.

Take ZBED8 (UniProt Q8IZ13): the log2 fold change is inactive: -0.03.

As to XPO7 (UniProt Q9UIA9), the log2 fold change is inactive: 0.004.

Regarding YIPF3 (UniProt Q9GZM5), the log2 fold change is inactive: -0.05.

Consider XPO6 (UniProt Q96QU8), for which the log2 fold change was inactive: -0.034.

Consider ZDHHC3 isoform 2 (UniProt Q9NYG2), for which the log2 fold change was inactive: -0.039.

With ZFPM1 (UniProt Q8IX07), the log2 fold change is inactive: -0.009.

With YES1 (UniProt P07947), the log2 fold change was inactive: 0.09.

With ZFAND2B (UniProt Q8WV99), the log2 fold change was inactive: 0.07.

For the target XPO1 (UniProt O14980), the log2 fold change is inactive: 0.009.

In the case of ZCCHC3 (UniProt Q9NUD5), the log2 fold change is inactive: -0.017.

In the case of YIPF5 isoform 3 (UniProt Q969M3), the log2 fold change is inactive: -0.046.

ZC3H18 (UniProt E7ERS3): the log2 fold change was inactive: 0.033.

Regarding YBX3 isoform 2 (UniProt P16989), the log2 fold change was inactive: -0.059.

In the case of ZC3H4 (UniProt Q9UPT8), the log2 fold change was inactive: 0.037.

With YJU2 (UniProt Q9BW85), the log2 fold change is inactive: 0.003.

As to ZC3H15 (UniProt Q8WU90), the log2 fold change is inactive: -0.008.

Regarding YIPF6 (UniProt Q96EC8), the log2 fold change is inactive: -0.073.

As to XRCC1 (UniProt P18887), the log2 fold change was inactive: 0.008.

Take ZFR (UniProt Q96KR1): the log2 fold change is inactive: 0.083.

YME1L1 (UniProt Q96TA2): the log2 fold change was inactive: -0.001.

On to YTHDC2 (UniProt Q9H6S0), for which the log2 fold change was inactive: 0.061.

Turning to ZFAND6 (UniProt Q6FIF0), the log2 fold change was inactive: 0.011.

Consider ZER1 (UniProt Q7Z7L7), for which the log2 fold change was inactive: 0.165.

Consider XPNPEP3 (UniProt Q9NQH7), for which the log2 fold change is inactive: -0.004.

On to ZBED1 (UniProt O96006), for which the log2 fold change was inactive: -0.042.

Turning to XPOT (UniProt O43592), the log2 fold change is inactive: -0.012.

Turning to YRDC (UniProt Q86U90), the log2 fold change is inactive: 0.024.

With YY1 (UniProt P25490), the log2 fold change is inactive: -0.065.

On to ZGPAT (UniProt Q8N5A5), for which the log2 fold change is inactive: -0.027.

In the case of XRCC6 (UniProt P12956), the log2 fold change is inactive: 0.025.

For the target YKT6 (UniProt O15498), the log2 fold change is inactive: 0.001.

On to YARS2 (UniProt Q9Y2Z4), for which the log2 fold change is inactive: -0.045.

Turning to ZC3H8 (UniProt Q8N5P1), the log2 fold change was inactive: -0.018.

In the case of ZCCHC8 (UniProt Q6NZY4), the log2 fold change was inactive: -0.002.

For YLPM1 (UniProt P49750), the log2 fold change was inactive: 0.013.

Turning to ZC3H7B (UniProt Q9UGR2), the log2 fold change is inactive: -0.078.

As for YIPF4 (UniProt Q9BSR8), the log2 fold change was inactive: -0.029.

In the case of YDJC (UniProt A8MPS7), the log2 fold change is inactive: 0.048.

With ZBTB21 (UniProt Q9ULJ3), the log2 fold change is inactive: -0.058.

Compound in the next assay: O=C(CCCCCCC(=O)Nc1ccccc1)NO [vorinostat]
The description is as above. A digest of the protocol:
as §1
Regarding YBX3 (UniProt P16989), the log2 fold change was inactive: 0.147.

As to ZBED8 (UniProt Q8IZ13), the log2 fold change was inactive: -0.101.

With XPO7 (UniProt Q9UIA9), the log2 fold change is inactive: -0.167.

For YIPF3 (UniProt Q9GZM5), the log2 fold change was inactive: 0.147.

Turning to XPO6 (UniProt Q96QU8), the log2 fold change was active: -0.401.

In the case of ZDHHC3 isoform 2 (UniProt Q9NYG2), the log2 fold change was inactive: 0.112.

Turning to ZFPM1 (UniProt Q8IX07), the log2 fold change is active: -0.251.

For the target YES1 (UniProt P07947), the log2 fold change is inactive: -0.067.

Consider ZFAND2B (UniProt Q8WV99), for which the log2 fold change is inactive: -0.15.

Consider XPO1 (UniProt O14980), for which the log2 fold change was active: -0.233.

Regarding ZCCHC3 (UniProt Q9NUD5), the log2 fold change was inactive: -0.111.

Take YIPF5 isoform 3 (UniProt Q969M3): the log2 fold change is inactive: 0.05.

ZC3H18 (UniProt E7ERS3): the log2 fold change is inactive: 0.036.

As to YBX3 isoform 2 (UniProt P16989), the log2 fold change was inactive: 0.186.

Take ZC3H4 (UniProt Q9UPT8): the log2 fold change is inactive: 0.078.

Regarding YJU2 (UniProt Q9BW85), the log2 fold change was inactive: 0.091.

ZC3H15 (UniProt Q8WU90): the log2 fold change was inactive: 0.08.

Turning to YIPF6 (UniProt Q96EC8), the log2 fold change is inactive: -0.015.

Turning to XRCC1 (UniProt P18887), the log2 fold change was inactive: -0.062.

Regarding ZFR (UniProt Q96KR1), the log2 fold change is inactive: -0.038.

For the target YME1L1 (UniProt Q96TA2), the log2 fold change was inactive: 0.04.

YTHDC2 (UniProt Q9H6S0): the log2 fold change is active: -0.231.

For the target ZFAND6 (UniProt Q6FIF0), the log2 fold change is inactive: 0.057.

Regarding ZER1 (UniProt Q7Z7L7), the log2 fold change is inactive: -0.018.

For XPNPEP3 (UniProt Q9NQH7), the log2 fold change was inactive: 0.217.

As for ZBED1 (UniProt O96006), the log2 fold change was inactive: -0.204.

XPOT (UniProt O43592): the log2 fold change is active: -0.656.

As to YRDC (UniProt Q86U90), the log2 fold change was active: -0.424.

On to YY1 (UniProt P25490), for which the log2 fold change is inactive: 0.047.

ZGPAT (UniProt Q8N5A5): the log2 fold change was inactive: -0.191.

Regarding XRCC6 (UniProt P12956), the log2 fold change is inactive: 0.049.

Turning to YKT6 (UniProt O15498), the log2 fold change is inactive: 0.046.

As for YARS2 (UniProt Q9Y2Z4), the log2 fold change was inactive: -0.132.

Take ZC3H8 (UniProt Q8N5P1): the log2 fold change was inactive: -0.086.

Consider ZCCHC8 (UniProt Q6NZY4), for which the log2 fold change was inactive: -0.081.

YLPM1 (UniProt P49750): the log2 fold change is inactive: -0.126.

Take ZC3H7B (UniProt Q9UGR2): the log2 fold change was inactive: -0.121.

As for YIPF4 (UniProt Q9BSR8), the log2 fold change is inactive: 0.119.

On to YDJC (UniProt A8MPS7), for which the log2 fold change was active: -0.443.

As for ZBTB21 (UniProt Q9ULJ3), the log2 fold change was inactive: 0.061.

The record behind these values is the supplement of paper PMC10849652.
